Binding data for one substance are collected here from paper PMC5341093.

Chains of the proteins cited; added tags and fusions are not shown.
UniProt Q01650: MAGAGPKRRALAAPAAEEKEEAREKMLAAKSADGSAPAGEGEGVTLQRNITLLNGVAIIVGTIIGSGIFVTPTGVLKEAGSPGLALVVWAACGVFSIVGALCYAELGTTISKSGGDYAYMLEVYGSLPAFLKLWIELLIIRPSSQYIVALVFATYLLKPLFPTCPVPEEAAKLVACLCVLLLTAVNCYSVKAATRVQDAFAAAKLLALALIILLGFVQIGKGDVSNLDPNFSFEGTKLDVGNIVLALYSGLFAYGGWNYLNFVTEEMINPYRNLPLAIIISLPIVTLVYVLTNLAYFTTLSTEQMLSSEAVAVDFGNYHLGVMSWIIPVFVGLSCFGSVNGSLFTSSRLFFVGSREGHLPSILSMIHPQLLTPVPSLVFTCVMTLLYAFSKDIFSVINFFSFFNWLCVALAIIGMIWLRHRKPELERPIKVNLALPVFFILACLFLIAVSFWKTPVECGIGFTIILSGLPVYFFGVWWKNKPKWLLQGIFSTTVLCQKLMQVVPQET

These are yes or no findings as the source states them, for the method shown. For some assays here: Binding seen in cells or lysates may run through a third protein. Some results given as binding are weak or reduced against the parent protein; the word gives no strength.

The target in assay [1] is L-Type Amino Acid Transporter 1 (LAT1, SLC7A5), LAT1-V5-His6 (human) (UniProt Q01650). Description: co-IP; LAT1-V5-His6 precipitated on V5 affinity gel from DDM-solubilised membranes of HEK293S GnTI- LAT1 cells (1.5% DDM, 20 mM Tris-Cl, 300 mM NaCl, 10% glycerol, pH 8, with CHS), eluted with V5 peptide, SEC on Superdex 200; peaks immunoblotted for CD98 and His6 in non-reducing conditions.

For assay [2] the target is unchanged. Description: SEC; co-purified LAT1-CD98 (peak 3, with CHS) in SEC buffer (DDM, 100 mM Tris-Cl, 300 mM NaCl, 10% glycerol, pH 8, CHS) run on analytical HPLC-SEC (BIO-SEC5) on day 1, 3 and 7 of storage at 4 °C; both purified.

For the substance “CD98 (4F2hc, SLC3A2) (from UniProt P08195 1-529)”, the binding entry in assay [1] and in assay [2] was “binds” each time.
